Results from the supplement of paper PMC4604168 (melanoma cell lines).
This is one part of the list. Many values rest on one well or one pass, so single values are uncertain.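 The apoptosis fraction was the count of cleaved-PARP antibody-stained nuclei relative to all DNA-stained nuclei, imaged in 1,536-well plates. Screening doses were set so most cells survived, and baseline and induced cleaved-PARP levels vary greatly across cell lines.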

How the values were obtained:
Experiment in all cases: cleaved PARP positive nuclei fraction relative to DMSO control; melanoma cells; higher = more apoptosis
Settings in all cases: library dose: low library concentration; 72 h
CBRC034 = system: CBRC034 (line from a melanoma biopsy)
COLO792 = system: COLO792
COLO800 = system: COLO800
COLO829 = system: COLO829
G361 = system: G361
IPC-298 = system: IPC-298
IST-MEL1 = system: IST-MEL1
LB2518-MEL = system: LB2518-MEL
LOXIMVI = system: LOXIMVI
MZ2-MEL = system: MZ2-MEL
MeWo = system: MeWo
RPMI7951 = system: RPMI7951
RVH-421 = system: RVH-421
SkMel28 = system: SkMel28
SkMel30 = system: SkMel30
SkMel5 = system: SkMel5
UACC257 = system: UACC257
UACC62 = system: UACC62

Row | Compound | cleaved PARP positive nuclei fraction (CBRC034) [%] | cleaved PARP positive nuclei fraction (COLO792) [%] | cleaved PARP positive nuclei fraction (COLO800) [%] | cleaved PARP positive nuclei fraction (COLO829) [%] | cleaved PARP positive nuclei fraction (G361) [%] | cleaved PARP positive nuclei fraction (IPC-298) [%] | cleaved PARP positive nuclei fraction (IST-MEL1) [%] | cleaved PARP positive nuclei fraction (LB2518-MEL) [%] | cleaved PARP positive nuclei fraction (LOXIMVI) [%] | cleaved PARP positive nuclei fraction (MZ2-MEL) [%] | cleaved PARP positive nuclei fraction (MeWo) [%] | cleaved PARP positive nuclei fraction (RPMI7951) [%] | cleaved PARP positive nuclei fraction (RVH-421) [%] | cleaved PARP positive nuclei fraction (SkMel28) [%] | cleaved PARP positive nuclei fraction (SkMel30) [%] | cleaved PARP positive nuclei fraction (SkMel5) [%] | cleaved PARP positive nuclei fraction (UACC257) [%] | cleaved PARP positive nuclei fraction (UACC62) [%]
1 | OCCn1cc(-c2cnc3nnn(Cc4ccc5ncccc5c4)c3n2)cn1 + COc1ccc(COc2ccc(Cc3cnc(N)nc3N)cc2OC)cc1 [GW2580] (first compound 1 µM, partner dose 1 µM) | 72.2 | 42.8 | 80.2 | 72.7 | 82.3 | 27.5 | 180 | 95.1 | 57.4 | 95.6 | 70.4 | 79.4 | 74.3 | 50 | 36.3 | 118 | 98 | 40.7
2 | C=CCn1c(=O)c2cnc(Nc3ccc(N4CCN(C)CC4)cc3)nc2n1-c1cccc(C(C)(C)O)n1 + O=C(O)C(=O)Nc1sc2c(c1C(=O)O)CCNC2 [TCS401] (first compound 0.02 µM, partner dose 1.66667 µM) | 82 | 125 | 255 | 65.5 | 93.4 | 165 | 57.8 | 97.3 | 60.4 | 227 | 58.2 | 86.5 | 49.4 | 168 | 41.3 | 91.6 | 93 | 255
3 | C[C@]1(c2nc3c(C(N)=O)cccc3[nH]2)CCCN1 [Veliparib] + CCc1ccc(CCOc2ccc(CC3SC(=O)NC3=O)cc2)nc1 [pioglitazone] (first compound 1.4 µM, partner dose 2 µM) | 41.9 | 78.3 | 18.9 | 180 | 124 | 79.3 | 208 | 204 | 28.2 | 58.6 | 30.6 | 69.7 | 24.8 | 142 | 18.7 | 29 | 169 | 29.4
4 | C#Cc1cccc(Nc2ncnc3cc(OCCOC)c(OCCOC)cc23)c1 [erlotinib] + Oc1nc(-c2ccc(C(F)(F)F)cc2)nc2c1CSCC2 [XAV939] (first compound 0.8 µM, partner dose 2 µM) | 53.1 | 211 | 35.2 | 101 | 130 | 117 | 91.6 | 84.8 | 68.5 | 155 | 28.7 | 94.1 | 52.2 | 132 | 29.6 | 60.2 | 264 | 84.6
5 | C[C@@H]1CCN(C(=O)CC#N)C[C@@H]1N(C)c1ncnc2[nH]ccc12 + CCCCCCCCCCCC1=C(O)C(=O)C=C(O)C1=O [Embelin] (first compound 1 µM, partner dose 1.2 µM) | 187 | 130 | 119 | 62.6 | 124 | 267 | 54.2 | 94.4 | 155 | 85.7 | 154 | 64.4 | 22.3 | 130 | 53.1 | 29.7 | 83.3 | 25.4
6 | CO[C@@H]1[C@H](N(C)C(=O)c2ccccc2)C[C@H]2O[C@]1(C)n1c3ccccc3c3c4c(c5c6ccccc6n2c5c31)C(=O)NC4 [Midostaurin] + COc1cc2ncnc(Nc3ccc(Oc4ccccc4)cc3)c2cc1OC [SrcI1] (first compound 0.08 µM, partner dose 2 µM) | 92.4 | 135 | 144 | 118 | 127 | 49.6 | 62.8 | 71.1 | 67.6 | 66.8 | 176 | 186 | 41.1 | 127 | 54.3 | 61.5 | 78.9 | 122
7 | COCC[n+]1c2c(n(Cc3cnccn3)c1C)C(=O)c1ccccc1C2=O + CCc1ccc(CCOc2ccc(CC3SC(=O)NC3=O)cc2)nc1 [pioglitazone] (first compound 0.0004 µM, partner dose 2 µM) | 100 | 241 | 45.1 | 154 | 157 | 130 | 79.9 | 109 | 33.3 | 154 | 108 | 103 | 97.8 | 127 | 23.6 | 209 | 61.3 | 93.6
8 | OCCn1cc(-c2cnc3nnn(Cc4ccc5ncccc5c4)c3n2)cn1 + Cn1cc(/C=C2\C(=O)Nc3cccnc32)c2ccccc21 [GW441756] (first compound 1 µM, partner dose 0.4 µM) | 171 | 79.8 | 71.4 | 84.5 | 74.5 | 42.6 | 41.6 | 90.1 | 81.7 | 112 | 29.1 | 21.3 | 8.3 | 216 | 24.9 | 75.3 | 56.6 | 41
9 | O=C(Nc1cccc(Cl)c1)Nc1ncc(CCNc2ncnc3ccsc23)s1 + Oc1nc(-c2ccc(C(F)(F)F)cc2)nc2c1CSCC2 [XAV939] (first compound 0.0008 µM, partner dose 2 µM) | 118 | 121 | 107 | 123 | 33.1 | 61 | 45.8 | 79.9 | 40.8 | 88.8 | 52.5 | 140 | 59 | 146 | 94 | 132 | 223 | 68.9
10 | CC1(C)NC(=O)N(c2ccc([N+](=O)[O-])c(C(F)(F)F)c2)C1=O [nilutamide] + O=C(Nc1ccccc1)c1cc([N+](=O)[O-])ccc1Cl [GW9662] (first compound 1 µM, partner dose 2 µM) | 86.6 | 50 | 133 | 109 | 177 | 102 | 163 | 176 | 64.5 | 123 | 107 | 156 | 40.2 | 181 | 144 | 60.2 | 111 | 215
11 | O=C(Nc1cccc(Cl)c1)Nc1ncc(CCNc2ncnc3ccsc23)s1 + CCc1ccc(CCOc2ccc(CC3SC(=O)NC3=O)cc2)nc1 [pioglitazone] (first compound 0.0008 µM, partner dose 2 µM) | 86.9 | 70.3 | 55.3 | 63.7 | 122 | 29.1 | 43.5 | 66.7 | 49.6 | 144 | 177 | 112 | 165 | 104 | 31 | 74.4 | 70.3 | 40.4
12 | Cc1cc(N2CCOCC2)cc2[nH]c(-c3c(NC[C@@H](O)c4cccc(Cl)c4)cc[nH]c3=O)nc12 + CCc1ccc(CCOc2ccc(CC3SC(=O)NC3=O)cc2)nc1 [pioglitazone] (first compound 0.2 µM, partner dose 2 µM) | 84.8 | 158 | 240 | 103 | 98.5 | 142 | 78.7 | 174 | 48.1 | 94.4 | 37.7 | 67.8 | 42.5 | 156 | 45.3 | 222 | 94.7 | 130
13 | O=C(CCCCCCC(=O)Nc1ccccc1)NO [vorinostat] + CCc1ccc(CCOc2ccc(CC3SC(=O)NC3=O)cc2)nc1 [pioglitazone] (first compound 0.08 µM, partner dose 2 µM) | 80.3 | 108 | 40.8 | 45.8 | 118 | 31.3 | 42.5 | 163 | 212 | 118 | 75.4 | 87.9 | 82.5 | 95.6 | 80.6 | 80.4 | 186 | 34.3
14 | O=C(CCCCCCC(=O)Nc1ccccc1)NO [vorinostat] + O=C(Nc1ccccc1)c1cc([N+](=O)[O-])ccc1Cl [GW9662] (first compound 0.08 µM, partner dose 2 µM) | 99.2 | 80.8 | 122 | 110 | 57.8 | 85 | 55.9 | 91.8 | 35.3 | 120 | 207 | 151 | 63.4 | 161 | 102 | 61.7 | 84.9 | 141
15 | COc1cc(Nc2ncc(F)c(Nc3ccc4c(n3)NC(=O)C(C)(C)O4)n2)cc(OC)c1OC [Tamatinib] + O=c1cc(-c2cccc3c2Sc2ccccc2S3)oc(N2CCOCC2)c1 [KU55933] (first compound 0.4 µM, partner dose 1 µM) | 54.3 | 176 | 212 | 114 | 129 | 74.1 | 142 | 530 | 73.4 | 112 | 74.9 | 92.5 | 59.2 | 73.2 | 102 | 29.1 | 239 | 183
16 | C#Cc1cccc(Nc2ncnc3cc(OCCOC)c(OCCOC)cc23)c1 [erlotinib] + COc1cc2ncnc(Nc3ccc(Oc4ccccc4)cc3)c2cc1OC [SrcI1] (first compound 0.8 µM, partner dose 2 µM) | 78.4 | 75.5 | 152 | 161 | 137 | 99.1 | 40.9 | 73.6 | 124 | 40.8 | 59.9 | 36.6 | 51.3 | 71.1 | 16.1 | 95.8 | 136 | 153
17 | CC(C)(C)c1cnc(CSc2cnc(NC(=O)C3CCNCC3)s2)o1 + O=C(O)C(=O)Nc1sc2c(c1C(=O)O)CCNC2 [TCS401] (first compound 0.01 µM, partner dose 1.66667 µM) | 80.2 | 106 | 156 | 62.8 | 112 | 84.7 | 133 | 92.1 | 63.5 | 101 | 53.5 | 73.3 | 110 | 299 | 47.2 | 28.3 | 275 | 392
18 | O=C(CCCCCCC(=O)Nc1ccccc1)NO [vorinostat] + N#Cc1c(O)c2c(-c3ccc(-c4ccccc4O)cc3)csc2[nH]c1=O [A769662] (first compound 0.08 µM, partner dose 2 µM) | 86.3 | 132 | 110 | 23.7 | 113 | 54 | 122 | 160 | 68.5 | 152 | 54 | 205 | 62 | 201 | 42.4 | 29.7 | 81.2 | 48.6

Two entries from above, with tabs:
Row	Compound	cleaved PARP positive nuclei fraction (CBRC034) [%]	cleaved PARP positive nuclei fraction (COLO792) [%]	cleaved PARP positive nuclei fraction (COLO800) [%]	cleaved PARP positive nuclei fraction (COLO829) [%]	cleaved PARP positive nuclei fraction (G361) [%]	cleaved PARP positive nuclei fraction (IPC-298) [%]	cleaved PARP positive nuclei fraction (IST-MEL1) [%]	cleaved PARP positive nuclei fraction (LB2518-MEL) [%]	cleaved PARP positive nuclei fraction (LOXIMVI) [%]	cleaved PARP positive nuclei fraction (MZ2-MEL) [%]	cleaved PARP positive nuclei fraction (MeWo) [%]	cleaved PARP positive nuclei fraction (RPMI7951) [%]	cleaved PARP positive nuclei fraction (RVH-421) [%]	cleaved PARP positive nuclei fraction (SkMel28) [%]	cleaved PARP positive nuclei fraction (SkMel30) [%]	cleaved PARP positive nuclei fraction (SkMel5) [%]	cleaved PARP positive nuclei fraction (UACC257) [%]	cleaved PARP positive nuclei fraction (UACC62) [%]
5	C[C@@H]1CCN(C(=O)CC#N)C[C@@H]1N(C)c1ncnc2[nH]ccc12 + CCCCCCCCCCCC1=C(O)C(=O)C=C(O)C1=O [Embelin] (first compound 1 µM, partner dose 1.2 µM)	187	130	119	62.6	124	267	54.2	94.4	155	85.7	154	64.4	22.3	130	53.1	29.7	83.3	25.4
6	CO[C@@H]1[C@H](N(C)C(=O)c2ccccc2)C[C@H]2O[C@]1(C)n1c3ccccc3c3c4c(c5c6ccccc6n2c5c31)C(=O)NC4 [Midostaurin] + COc1cc2ncnc(Nc3ccc(Oc4ccccc4)cc3)c2cc1OC [SrcI1] (first compound 0.08 µM, partner dose 2 µM)	92.4	135	144	118	127	49.6	62.8	71.1	67.6	66.8	176	186	41.1	127	54.3	61.5	78.9	122
